The other results are listed elsewhere or left out.

By UniProt entry, the sequences of proteins in these tests, tags left out. Where a name states a change or a piece, a line headed by the entry shows the natural chain unless it says otherwise.
UniProt A0JNW5: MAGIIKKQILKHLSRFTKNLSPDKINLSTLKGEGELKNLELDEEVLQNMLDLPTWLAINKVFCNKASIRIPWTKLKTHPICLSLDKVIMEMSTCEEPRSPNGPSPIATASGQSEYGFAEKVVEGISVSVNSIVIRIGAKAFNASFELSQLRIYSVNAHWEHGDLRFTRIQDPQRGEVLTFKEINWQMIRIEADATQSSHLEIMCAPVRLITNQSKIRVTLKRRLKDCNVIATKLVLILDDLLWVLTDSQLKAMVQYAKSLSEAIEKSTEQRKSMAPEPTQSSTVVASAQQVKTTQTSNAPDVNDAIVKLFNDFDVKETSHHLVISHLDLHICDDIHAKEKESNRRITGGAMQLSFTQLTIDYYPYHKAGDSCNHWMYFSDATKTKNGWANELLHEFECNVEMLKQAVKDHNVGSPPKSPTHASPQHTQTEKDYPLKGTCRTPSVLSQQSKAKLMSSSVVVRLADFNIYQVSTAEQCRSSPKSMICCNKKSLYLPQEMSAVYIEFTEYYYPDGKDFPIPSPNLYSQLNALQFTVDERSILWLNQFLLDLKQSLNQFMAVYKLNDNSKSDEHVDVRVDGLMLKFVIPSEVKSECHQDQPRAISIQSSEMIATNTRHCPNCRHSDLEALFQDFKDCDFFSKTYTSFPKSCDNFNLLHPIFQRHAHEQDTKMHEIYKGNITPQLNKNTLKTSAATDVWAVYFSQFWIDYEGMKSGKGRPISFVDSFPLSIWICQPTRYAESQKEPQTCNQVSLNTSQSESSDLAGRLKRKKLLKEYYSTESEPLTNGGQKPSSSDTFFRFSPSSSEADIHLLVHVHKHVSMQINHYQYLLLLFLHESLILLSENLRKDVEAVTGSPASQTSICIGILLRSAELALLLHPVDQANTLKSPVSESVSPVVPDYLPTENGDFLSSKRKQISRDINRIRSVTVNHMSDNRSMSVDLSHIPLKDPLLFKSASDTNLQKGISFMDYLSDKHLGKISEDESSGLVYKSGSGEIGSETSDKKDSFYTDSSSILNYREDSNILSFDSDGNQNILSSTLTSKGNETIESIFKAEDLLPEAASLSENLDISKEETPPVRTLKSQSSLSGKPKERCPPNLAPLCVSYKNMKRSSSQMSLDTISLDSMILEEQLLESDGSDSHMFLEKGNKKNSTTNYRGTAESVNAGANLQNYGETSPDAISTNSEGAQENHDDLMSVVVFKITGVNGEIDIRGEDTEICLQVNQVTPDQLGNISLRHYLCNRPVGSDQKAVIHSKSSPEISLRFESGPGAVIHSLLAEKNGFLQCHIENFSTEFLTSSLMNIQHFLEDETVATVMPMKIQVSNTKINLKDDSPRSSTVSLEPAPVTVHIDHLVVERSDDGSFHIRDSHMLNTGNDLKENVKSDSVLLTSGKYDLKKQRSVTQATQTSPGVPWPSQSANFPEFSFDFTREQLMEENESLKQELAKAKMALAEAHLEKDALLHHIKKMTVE
UniProt Q9P2Y5: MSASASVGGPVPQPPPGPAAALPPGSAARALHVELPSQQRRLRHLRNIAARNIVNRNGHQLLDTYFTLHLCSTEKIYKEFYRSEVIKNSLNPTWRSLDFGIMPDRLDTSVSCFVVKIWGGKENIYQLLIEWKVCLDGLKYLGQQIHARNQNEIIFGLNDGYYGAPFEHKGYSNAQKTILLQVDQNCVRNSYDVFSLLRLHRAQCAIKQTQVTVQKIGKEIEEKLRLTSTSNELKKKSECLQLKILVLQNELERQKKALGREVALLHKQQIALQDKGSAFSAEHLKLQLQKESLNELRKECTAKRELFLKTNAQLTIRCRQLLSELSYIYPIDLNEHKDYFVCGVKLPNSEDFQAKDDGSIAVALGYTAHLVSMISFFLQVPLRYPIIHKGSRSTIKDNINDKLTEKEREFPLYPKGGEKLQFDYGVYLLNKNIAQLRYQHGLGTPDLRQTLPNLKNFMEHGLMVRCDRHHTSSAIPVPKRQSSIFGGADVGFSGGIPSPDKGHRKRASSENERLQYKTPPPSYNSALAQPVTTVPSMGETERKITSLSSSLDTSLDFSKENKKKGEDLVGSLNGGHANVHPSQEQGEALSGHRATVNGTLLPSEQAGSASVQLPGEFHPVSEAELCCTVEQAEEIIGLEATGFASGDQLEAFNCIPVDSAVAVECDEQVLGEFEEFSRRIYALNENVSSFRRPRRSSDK
UniProt P51809, whole entry, looked up: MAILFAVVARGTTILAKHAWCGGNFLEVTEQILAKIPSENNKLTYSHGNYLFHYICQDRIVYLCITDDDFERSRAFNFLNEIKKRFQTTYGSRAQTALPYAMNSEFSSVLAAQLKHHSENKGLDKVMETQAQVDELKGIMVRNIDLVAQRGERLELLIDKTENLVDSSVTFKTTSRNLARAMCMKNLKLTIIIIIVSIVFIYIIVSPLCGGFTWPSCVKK
UniProt P22695: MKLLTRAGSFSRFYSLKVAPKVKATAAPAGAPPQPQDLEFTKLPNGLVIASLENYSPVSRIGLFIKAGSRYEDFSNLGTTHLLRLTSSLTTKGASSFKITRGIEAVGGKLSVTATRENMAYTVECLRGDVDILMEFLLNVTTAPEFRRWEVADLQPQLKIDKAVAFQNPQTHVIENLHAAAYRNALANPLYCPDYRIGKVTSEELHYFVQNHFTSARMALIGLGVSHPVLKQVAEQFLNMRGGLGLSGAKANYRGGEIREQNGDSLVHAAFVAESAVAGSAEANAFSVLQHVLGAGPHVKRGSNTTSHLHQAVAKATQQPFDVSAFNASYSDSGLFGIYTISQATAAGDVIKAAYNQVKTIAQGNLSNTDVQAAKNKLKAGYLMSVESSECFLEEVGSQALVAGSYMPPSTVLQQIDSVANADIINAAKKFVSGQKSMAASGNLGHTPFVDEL
UniProt P55072, whole entry, looked up: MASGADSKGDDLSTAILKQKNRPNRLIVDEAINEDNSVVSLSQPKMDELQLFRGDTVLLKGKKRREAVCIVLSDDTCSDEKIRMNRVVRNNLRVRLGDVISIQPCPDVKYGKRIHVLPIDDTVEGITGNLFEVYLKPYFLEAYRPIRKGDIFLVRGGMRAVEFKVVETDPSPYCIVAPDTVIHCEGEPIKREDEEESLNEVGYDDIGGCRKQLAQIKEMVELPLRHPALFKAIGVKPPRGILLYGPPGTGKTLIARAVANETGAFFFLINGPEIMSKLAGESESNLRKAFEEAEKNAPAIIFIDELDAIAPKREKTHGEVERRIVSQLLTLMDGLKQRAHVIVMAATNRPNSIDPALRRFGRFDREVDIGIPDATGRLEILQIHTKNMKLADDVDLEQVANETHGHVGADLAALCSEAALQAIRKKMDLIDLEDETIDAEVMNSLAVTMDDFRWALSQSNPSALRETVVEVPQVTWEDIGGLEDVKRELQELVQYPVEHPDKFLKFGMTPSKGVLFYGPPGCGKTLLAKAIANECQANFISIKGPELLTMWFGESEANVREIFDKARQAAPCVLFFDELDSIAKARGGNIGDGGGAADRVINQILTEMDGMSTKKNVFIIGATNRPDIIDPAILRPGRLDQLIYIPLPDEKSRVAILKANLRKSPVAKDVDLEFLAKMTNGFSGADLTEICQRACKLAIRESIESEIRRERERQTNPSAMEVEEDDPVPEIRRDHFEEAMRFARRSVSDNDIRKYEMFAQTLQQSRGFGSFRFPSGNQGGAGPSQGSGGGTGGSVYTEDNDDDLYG
UniProt O94763, whole entry, looked up: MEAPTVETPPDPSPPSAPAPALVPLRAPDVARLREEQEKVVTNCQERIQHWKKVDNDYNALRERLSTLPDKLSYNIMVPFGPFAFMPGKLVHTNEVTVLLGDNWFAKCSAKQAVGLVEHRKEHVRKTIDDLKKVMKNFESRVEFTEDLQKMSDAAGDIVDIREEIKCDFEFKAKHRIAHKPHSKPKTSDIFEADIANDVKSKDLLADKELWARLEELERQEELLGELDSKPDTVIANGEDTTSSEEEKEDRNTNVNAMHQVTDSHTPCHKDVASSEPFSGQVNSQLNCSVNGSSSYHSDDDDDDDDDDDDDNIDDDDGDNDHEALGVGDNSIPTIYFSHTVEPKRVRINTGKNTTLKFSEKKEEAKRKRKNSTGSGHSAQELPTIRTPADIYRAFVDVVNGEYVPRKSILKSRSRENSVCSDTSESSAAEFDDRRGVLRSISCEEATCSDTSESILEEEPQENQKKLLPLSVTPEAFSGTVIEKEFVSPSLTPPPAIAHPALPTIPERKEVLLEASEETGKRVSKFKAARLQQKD
UniProt O75379: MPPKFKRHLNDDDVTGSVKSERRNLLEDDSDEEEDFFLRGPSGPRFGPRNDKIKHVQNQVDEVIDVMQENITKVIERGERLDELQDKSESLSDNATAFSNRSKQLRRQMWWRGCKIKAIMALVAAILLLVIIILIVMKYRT
UniProt Q8NBZ7: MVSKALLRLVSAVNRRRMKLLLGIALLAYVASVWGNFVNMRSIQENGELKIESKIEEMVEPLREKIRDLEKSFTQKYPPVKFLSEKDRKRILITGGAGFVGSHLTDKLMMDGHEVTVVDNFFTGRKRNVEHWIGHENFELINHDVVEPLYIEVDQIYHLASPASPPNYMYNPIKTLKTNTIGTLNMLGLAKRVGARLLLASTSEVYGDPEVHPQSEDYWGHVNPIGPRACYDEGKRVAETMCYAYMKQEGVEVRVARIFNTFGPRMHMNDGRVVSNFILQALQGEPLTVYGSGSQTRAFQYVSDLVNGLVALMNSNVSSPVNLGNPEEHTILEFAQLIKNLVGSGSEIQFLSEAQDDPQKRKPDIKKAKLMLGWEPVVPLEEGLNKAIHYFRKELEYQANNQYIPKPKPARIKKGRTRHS
UniProt Q9H1C4: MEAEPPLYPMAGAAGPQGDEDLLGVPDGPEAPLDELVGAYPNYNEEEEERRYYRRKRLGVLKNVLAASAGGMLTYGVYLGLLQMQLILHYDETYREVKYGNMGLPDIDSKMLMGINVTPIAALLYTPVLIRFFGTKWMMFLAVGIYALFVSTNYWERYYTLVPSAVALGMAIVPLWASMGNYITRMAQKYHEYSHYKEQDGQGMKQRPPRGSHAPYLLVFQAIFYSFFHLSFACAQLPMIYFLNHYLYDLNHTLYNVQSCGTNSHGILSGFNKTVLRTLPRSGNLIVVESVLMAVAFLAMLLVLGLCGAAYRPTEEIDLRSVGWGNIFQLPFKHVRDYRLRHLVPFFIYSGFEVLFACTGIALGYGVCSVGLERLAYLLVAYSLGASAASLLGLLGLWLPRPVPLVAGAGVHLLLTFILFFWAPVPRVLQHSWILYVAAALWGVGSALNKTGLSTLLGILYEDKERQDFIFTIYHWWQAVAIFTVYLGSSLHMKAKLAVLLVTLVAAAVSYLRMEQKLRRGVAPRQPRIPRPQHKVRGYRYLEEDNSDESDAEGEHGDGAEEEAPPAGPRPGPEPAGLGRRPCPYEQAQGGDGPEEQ
UniProt P06132: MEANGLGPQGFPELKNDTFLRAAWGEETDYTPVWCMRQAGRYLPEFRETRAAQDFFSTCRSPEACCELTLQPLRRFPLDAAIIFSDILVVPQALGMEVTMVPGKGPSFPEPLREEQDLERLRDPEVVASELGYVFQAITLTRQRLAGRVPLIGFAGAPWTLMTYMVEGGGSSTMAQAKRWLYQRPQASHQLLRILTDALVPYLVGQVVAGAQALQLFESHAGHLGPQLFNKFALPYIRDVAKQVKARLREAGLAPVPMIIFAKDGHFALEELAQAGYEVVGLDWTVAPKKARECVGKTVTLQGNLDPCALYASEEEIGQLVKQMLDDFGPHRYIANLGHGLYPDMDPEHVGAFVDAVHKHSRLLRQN
UniProt Q9Y5K5, whole entry, looked up: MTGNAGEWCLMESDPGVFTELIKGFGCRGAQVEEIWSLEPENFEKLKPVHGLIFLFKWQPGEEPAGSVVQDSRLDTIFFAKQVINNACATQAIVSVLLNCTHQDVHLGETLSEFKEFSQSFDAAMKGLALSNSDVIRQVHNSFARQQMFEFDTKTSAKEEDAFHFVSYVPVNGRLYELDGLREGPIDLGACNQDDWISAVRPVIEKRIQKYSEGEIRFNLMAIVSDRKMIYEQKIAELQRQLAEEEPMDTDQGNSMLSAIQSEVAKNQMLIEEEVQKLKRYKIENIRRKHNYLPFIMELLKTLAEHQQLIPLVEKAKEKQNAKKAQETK
UniProt P47985: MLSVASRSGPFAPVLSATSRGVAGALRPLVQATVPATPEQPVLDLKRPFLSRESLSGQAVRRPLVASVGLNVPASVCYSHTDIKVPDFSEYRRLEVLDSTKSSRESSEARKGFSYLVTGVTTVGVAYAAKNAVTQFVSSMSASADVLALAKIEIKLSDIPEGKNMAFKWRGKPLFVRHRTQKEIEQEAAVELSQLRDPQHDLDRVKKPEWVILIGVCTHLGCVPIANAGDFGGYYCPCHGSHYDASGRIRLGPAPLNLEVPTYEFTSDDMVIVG
UniProt Q9BZX2: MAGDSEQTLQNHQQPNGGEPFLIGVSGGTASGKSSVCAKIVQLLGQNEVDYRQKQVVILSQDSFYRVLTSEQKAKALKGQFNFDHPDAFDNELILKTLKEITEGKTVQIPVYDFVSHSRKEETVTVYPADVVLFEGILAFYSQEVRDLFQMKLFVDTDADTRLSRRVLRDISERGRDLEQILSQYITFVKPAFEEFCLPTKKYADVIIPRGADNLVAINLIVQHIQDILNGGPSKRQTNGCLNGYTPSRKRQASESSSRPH

Compound in one assay: C1=CC(=CC=C1C2=NC3=C(N2)C=C(C=C3)C(=O)N)OC4=CC=C(C=C4)Cl
The assay is described as follows: log2 fold change, soluble protein after heating vs DMSO (PISA); higher = thermal stabilisation; K562 cells, 10 uM, 30 min; active = over 0.2 and 3.5 SD of the protein, either way, in both replicates (recomputed). Put shortly: (§1)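 Soluble protein was quantified by TMTpro 16plex LC-MS/MS after channel sums were equalised. It was obtained as the supernatant after 21,000xg for 90 min from pooled aliquots of K562 cells (2×10^6 cells/mL, 10 μM compound, 30 min) heated for 3 min across 48°C-58°C and extracted in PBS with 0.5% NP-40 at 4°C. Thermal stability values are relative to control samples and come from duplicates. They are given as log2 fold changes.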
USF1 (UniProt P22415): the log2 fold change was inactive: 0.166.
The same measure, in the same setting: under UHRF1BP1L (UniProt A0JNW5) stands inactive: 0.027; under VBP1 (UniProt P61758), inactive: -0.007.
Same read-out and setting: under UTP15 (UniProt Q8TED0) stands inactive: 0.077.
For the target UPRT (UniProt Q96BW1), the log2 fold change is inactive: 0.029.
Same read-out and setting: under UGP2 (UniProt Q16851) stands inactive: 0.001; under UGT8 (UniProt Q16880), inactive: -0.076; under UMPS (UniProt P11172), inactive: 0.008.
The same measure, in the same setting: under UPF3B (UniProt Q9BZI7) stands inactive: 0.088.
Same read-out and setting: then UVRAG (UniProt Q9P2Y5), with inactive: -0.007.
On to VAMP7 (UniProt P51809), for which the log2 fold change was inactive: 0.005.
The same measure, in the same setting: then UQCRC2 (UniProt P22695), with inactive: -0.024; and USP20 (UniProt Q9Y2K6), with inactive: 0.032; and VCP (UniProt P55072), with inactive: 0.007.
On the same count and under the same terms, under URI1 isoform 4 (UniProt O94763) stands inactive: 0.01; under USO1 isoform 2 (UniProt O60763), inactive: -0.028; under UFC1 (UniProt Q9Y3C8), inactive: -0.053.
Same read-out and setting: under VAMP4 (UniProt O75379) stands inactive: -0.031.
On to UBL4A (UniProt P11441), for which the log2 fold change is inactive: 0.038.
Regarding UFSP2 (UniProt Q9NUQ7), the log2 fold change is inactive: 0.005.
For VAC14 (UniProt Q08AM6), the log2 fold change is inactive: 0.033.
The same measure, in the same setting: under USP25 isoform 3 (UniProt Q9UHP3) stands inactive: 0.002.
The same measure, in the same setting: under USP3 (UniProt Q9Y6I4) stands inactive: 0.004; under USP16 (UniProt Q9Y5T5), inactive: 0.004.
Still for that read-out and setting: then USP15 (UniProt Q9Y4E8), with inactive: -0.015; and UXS1 isoform 2 (UniProt Q8NBZ7), with inactive: 0.008; and UGCG (UniProt Q16739), with inactive: 0.004.
As to USP34 (UniProt Q70CQ2), the log2 fold change is inactive: -0.02.
On the same count and under the same terms, then UQCC2 (UniProt Q9BRT2), with inactive: 0.008; and UNC93B1 (UniProt Q9H1C4), with inactive: -0.144; and UBR2 (UniProt Q8IWV8), with inactive: 0.051.
On to URI1 (UniProt O94763), for which the log2 fold change was inactive: 0.041.
UXT isoform 2 (UniProt Q9UBK9): the log2 fold change was inactive: 0.113.
Same read-out and setting: under UROD (UniProt P06132) stands inactive: 0.014.
On the same count and under the same terms, then UCHL5 (UniProt Q9Y5K5), with inactive: -0.024; and UCHL5 isoform 3 (UniProt Q9Y5K5), with inactive: -0.124; and UQCRFS1 (UniProt P47985), with inactive: -0.005.
Still for that read-out and setting: under UBXN4 (UniProt Q92575) stands inactive: 0.024; under UCK2 (UniProt Q9BZX2), inactive: -0.029.

Compound in a further assay: C1=CC2=C(C=CC(=C2)/C=C\3/C(=O)NC(=NCC4=CC=CS4)S3)N=C1
The description is as above. The essentials:
as §1
USF1 (UniProt P22415): the log2 fold change is inactive: 0.219.
The same measure, in the same setting: then UHRF1BP1L (UniProt A0JNW5), with inactive: 0.042; and VBP1 (UniProt P61758), with inactive: -0.051.
On the same count and under the same terms, then UTP15 (UniProt Q8TED0), with inactive: -0.057.
The same measure, in the same setting: then UPRT (UniProt Q96BW1), with inactive: 0.092; and UGP2 (UniProt Q16851), with inactive: 0.024; and UGT8 (UniProt Q16880), with inactive: -0.078.
Regarding UMPS (UniProt P11172), the log2 fold change was inactive: 0.032.
Same read-out and setting: under UPF3B (UniProt Q9BZI7) stands inactive: -0.053; under UVRAG (UniProt Q9P2Y5), inactive: 0.044.
The same measure, in the same setting: then VAMP7 (UniProt P51809), with inactive: 0.016; and UQCRC2 (UniProt P22695), with inactive: 0.018; and USP20 (UniProt Q9Y2K6), with inactive: -0.016.
VCP (UniProt P55072): the log2 fold change was inactive: -0.016.
Turning to URI1 isoform 4 (UniProt O94763), the log2 fold change was inactive: 0.037.
The same measure, in the same setting: under USO1 isoform 2 (UniProt O60763) stands inactive: -0.049; under UFC1 (UniProt Q9Y3C8), inactive: -0.034.
For VAMP4 (UniProt O75379), the log2 fold change is inactive: 0.
Same read-out and setting: under UBL4A (UniProt P11441) stands inactive: 0.004; under UFSP2 (UniProt Q9NUQ7), inactive: 0.028.
On the same count and under the same terms, then VAC14 (UniProt Q08AM6), with inactive: 0.018; and USP25 isoform 3 (UniProt Q9UHP3), with inactive: 0.028; and USP3 (UniProt Q9Y6I4), with inactive: -0.062.
On the same count and under the same terms, then USP16 (UniProt Q9Y5T5), with inactive: 0.143.
In the case of USP15 (UniProt Q9Y4E8), the log2 fold change was inactive: 0.027.
Same read-out and setting: then UXS1 isoform 2 (UniProt Q8NBZ7), with inactive: -0.012; and UGCG (UniProt Q16739), with inactive: 0.014; and USP34 (UniProt Q70CQ2), with inactive: 0.145.
On the same count and under the same terms, under UQCC2 (UniProt Q9BRT2) stands inactive: 0.121; under UNC93B1 (UniProt Q9H1C4), inactive: -0.055; under UBR2 (UniProt Q8IWV8), inactive: 0.045.
Still for that read-out and setting: under URI1 (UniProt O94763) stands inactive: 0.033.
For the target UXT isoform 2 (UniProt Q9UBK9), the log2 fold change is inactive: 0.061.
On the same count and under the same terms, under UROD (UniProt P06132) stands inactive: -0.068; under UCHL5 (UniProt Q9Y5K5), inactive: 0.036; under UCHL5 isoform 3 (UniProt Q9Y5K5), inactive: -0.036.
The same measure, in the same setting: then UQCRFS1 (UniProt P47985), with inactive: -0.069.
Still for that read-out and setting: then UBXN4 (UniProt Q92575), with inactive: 0.01; and UCK2 (UniProt Q9BZX2), with inactive: -0.006.

These data come from the supplement of paper PMC10849652.
